Measured values taken from US12702307B2, “Non-invasive stress imaging methods of diagnosing peripheral arterial disease via dynamic pet” (Jubilant DraxImage inc., priority 2021, dated 2026).

Tested on: calf muscles, hindlimb ischemia (HLI)
Test: Rb-82 PET/CT of calf muscles in rabbit hindlimb ischemia at rest and cuff-induced hyperemia
Assay type: in vivo, rabbits
Method: Methods: Hindlimb ischemia (HLI) was created in rabbits (n=8) by right femoral ligations and Rb-82 PET/CT imaging performed on digital PET scanner (Vision600, Siemens) at either 2 or 4 weeks post-ligation. Rabbits were injected with Rb-82 (1.5 mCi) with constant activity infusion over 30 seconds at rest and 30 seconds following hyperemia induced by 3 minutes cuff occlusion of thighs bilaterally. PET images were acquired with shuttling scanner from heart to feet using 8 passes over 7 minutes. Summed images were created excluding the first 90 seconds post injection. Calf muscles were segmented based on CT images. Mean Rb-82 standardized uptake values (SUVs) were calculated for calf muscles—gastrocnemius (GC), plantaris (PLA), soleus (SOL), tibialis anterior (TA), extensor digitorum longus (EDL), peroneus (PER)—for both ischemic (I) and non-ischemic (NI) limbs. CT angiography was performed, and tissues analyzed for fiber type and capillary density.

Substance: Rb-82 chloride
- SMPR (skeletal muscle perfusion reserve) (ischemic (I) limb, in presence of collaterals): 1.98±0.63
- SMPR (skeletal muscle perfusion reserve) (non-ischemic (NI) limb): 2.30±0.54
